The list shows only some results of the screen, not a fair sample: it is rich in T/C values a quarter to a half above the control, in often repeated tests (any T/C) and in doses without a T/C. Further doses and runs are listed elsewhere. T/C is the treated group as % of the vehicle group. Some entries give survivors of the animals treated and no T/C: the source files T/C as zero there, which appears to mark a toxic dose or a test without result, not a measured value. Some doses without a T/C left all or most animals alive at the check, yet need not have been tolerated: the source hardly ever lists a survival T/C far under the control, and the zero likely stands for such cases as well. Survivors were counted at the toxicity check, usually on the fifth day, unless a day is given; later deaths do not show. Schedule codes are those of the source, read here as Q, the interval in days (D) or hours (H), X, the number of doses. Some entries were tested several times; the values are given in rising order. Where survival is the endpoint, this PubChem deposit counts one and a half times the control or more as active, and values a quarter to a half above the control carry no call in these data; other NCI protocols may use other cut-offs. Some T/C values carry the count of animals alive at the toxicity check (mostly the fifth day); without a count, all were alive then.
System: P388 leukemia ip, CD2F1 mice, survival T/C
Experiment: NCI In Vivo Anticancer Drug Screen. Data for tumor model P388 Leukemia (intraperitoneal) in CD2F1 (CDF1) mice
Settings: T/C endpoint: median survival time, higher T/C = longer survival
[1] = dose: 200.0 mg/kg/injection, schedule: Q01DX005 (ip), vehicle: Klucel (hydroxypropylcellulose) (HPC)
[2] = dose: 200.0 mg/kg/injection, schedule: Q01DX005 (ip), vehicle: saline with Tween-80
[3] = dose: 100.0 mg/kg/injection, schedule: Q01DX009 (ip), vehicle: saline with Tween-80
[4] = dose: 120.0 mg/kg/injection, schedule: Q01DX005 (ip), vehicle: saline with Tween-80
[5] = dose: 240.0 mg/kg/injection, schedule: Q01DX005 (ip), vehicle: saline with Tween-80
[6] = dose: 50.0 mg/kg/injection, schedule: Q01DX005 (ip), vehicle: Klucel (hydroxypropylcellulose) (HPC)
[7] = dose: 100.0 mg/kg/injection, schedule: Q01DX005 (ip), vehicle: Klucel (hydroxypropylcellulose) (HPC)
[8] = dose: 1.2 mg/kg/injection, schedule: Q01DX005 (ip), vehicle: acid diluted with saline
[9] = dose: 200.0 mg/kg/injection, schedule: Q01DX009 (ip), vehicle: saline with Tween-80

`CC(C)(C)c1cc(C(C)(C)C)c(=O)oc(=O)c1` was tested, and the survivor count [1] was 4 of 6.

For `Cn1c2nc3ccccc3c-2nc2ccccc21`, the survivor count (dose: 12.5 mg/kg/injection, schedule: Q01DX009 (ip), vehicle: water) was 6 of 6 and the survivor count (dose: 25.0 mg/kg/injection, schedule: Q01DX009 (ip), vehicle: water) was 6 of 6.

In the case of `c1nnc(NC(Nc2nncs2)C2CCCCC2)s1`, the survivor count (dose: 60.0 mg/kg/injection, schedule: Q01DX005 (ip), vehicle: saline with Tween-80) is reported as 6 of 6.

In the case of `CC/C(=N\NS(=O)(=O)c1ccc(C)cc1)c1ccc(OC)c(C)c1`, the survivor count (dose: 100.0 mg/kg/injection, schedule: Q01DX009 (ip), vehicle: saline) is reported as 4 of 6.

For `O=C1c2ccccc2C(=O)N1c1ccc(Nc2nc(Nc3ccc(N4C(=O)c5ccccc5C4=O)cc3)nc(N(C3CCCCC3)C3CCCCC3)n2)cc1`, the survivor count [2] was 6 of 6.

In the case of `CNC(=O)Oc1ncccc1[N+](=O)[O-]`, the survivor count (dose: 400.0 mg/kg/injection, schedule: Q01DX009 (ip), vehicle: saline) is reported as 0 of 6.

With `CC(C)=CCC/C(C)=C/COC(=O)C=[N+]=[N-]` the T/C [3] was 126 % of control.

`O=C1OC(=O)C2C1C1c3ccccc3C2(O)c2ccccc21` (stereo not drawn) was tested, and the survivor count [4] was 3 of 6 and the survivor count [5] was 1 of 6.

`C=C1C(=O)O[C@H]2/C=C(/C)C3=CC(=O)[C@@](C)(C[C@@H](OC(=O)/C(C)=C\C)C12)O3` (stereo partly drawn) was tested, and the survivor count (dose: 25.0 mg/kg/injection, schedule: Q01DX005 (ip), vehicle: Klucel (hydroxypropylcellulose) (HPC)) was 4 of 6, the survivor count [6] was 1 of 6 and the survivor count [7] was 0 of 6. The survivor count [1] was 0 of 6.

For `COC1=C(C)C(=O)C2=C(C1=O)C(CO)N1C(C#N)C3CC4C(C1C2N1CCOC41)N3C` (stereo not drawn), the T/C (dose: 0.3 mg/kg/injection, schedule: Q01DX005 (ip), vehicle: acid diluted with saline) was 135 % of control, the T/C (dose: 0.6 mg/kg/injection, schedule: Q01DX005 (ip), vehicle: acid diluted with saline) was 130 % of control and the T/C [8] was 146 % of control [5 of 6 alive]. For the same compound, the survivor count [8] was 4 of 6, the T/C (dose: 1.5 mg/kg/injection, schedule: Q01DX005 (ip), vehicle: saline + alcohol) was 147 % of control and the survivor count (dose: 1.6 mg/kg/injection, schedule: Q01DX005 (ip), vehicle: saline + alcohol) was 4 of 6. The survivor count (dose: 2.4 mg/kg/injection, schedule: Q01DX005 (ip), vehicle: acid diluted with saline) was 0 of 6, the survivor count (dose: 2.5 mg/kg/injection, schedule: Q01DX005 (ip), vehicle: acid diluted with saline) was 1 of 6 and the survivor count (dose: 3.0 mg/kg/injection, schedule: Q01DX005 (ip), vehicle: saline + alcohol) was 0 of 5. For the same compound, the survivor count (dose: 3.2 mg/kg/injection, schedule: Q01DX005 (ip), vehicle: saline + alcohol) was 0 of 6, the survivor count (dose: 5.0 mg/kg/injection, schedule: Q01DX005 (ip), vehicle: acid diluted with saline) was 0 of 6 and the survivor count (dose: 6.0 mg/kg/injection, schedule: Q01DX005 (ip), vehicle: saline + alcohol) was 0 of 5. For the same compound, the survivor count (dose: 10.0 mg/kg/injection, schedule: Q01DX005 (ip), vehicle: acid diluted with saline) was 0 of 6 and the survivor count (dose: 20.0 mg/kg/injection, schedule: Q01DX005 (ip), vehicle: acid diluted with saline) was 0 of 6.

In the case of `O=C1C=C(Cl)C(=O)C(c2ccccc2)=C1Cl`, the survivor count (dose: 6.25 mg/kg/injection, schedule: Q01DX005 (ip), vehicle: Klucel (hydroxypropylcellulose) (HPC)) is reported as 5 of 5, the survivor count [6] is reported as 4 of 5 and the survivor count [7] is reported as 2 of 5. For the same compound, the survivor count [1] was 0 of 5.

With `C=C1CC[N+]2(CCCC)CCCC12` (stereo not drawn) the survivor count (dose: 60.0 mg/kg/injection, schedule: Q01DX005 (ip), vehicle: saline) was 0 of 6, the survivor count (dose: 120.0 mg/kg/injection, schedule: Q01DX005 (ip), vehicle: saline) was 0 of 6 and the survivor count (dose: 240.0 mg/kg/injection, schedule: Q01DX005 (ip), vehicle: saline) was 0 of 6.

For `CCN1CCC(OC(=O)c2ccccc2)(c2nccc3ccccc23)CC1`, the survivor count [3] was 3 of 6 and the survivor count [9] was 0 of 6.

With `CCCOc1cc2c(cc1C(C)c1ccc(OCC)cc1)OCO2` (stereo not drawn) the T/C (dose: 100.0 mg/kg/injection, schedule: Q01DX005 (ip), vehicle: saline with Tween-80) was 126 % of control, the survivor count (dose: 120.0 mg/kg/injection, schedule: Q01DX005 (ip), vehicle: Klucel (hydroxypropylcellulose) (HPC)) was 6 of 6 and the survivor count [2] was 6 of 6. For the same compound, the survivor count (dose: 240.0 mg/kg/injection, schedule: Q01DX005 (ip), vehicle: Klucel (hydroxypropylcellulose) (HPC)) was 6 of 6, the T/C [5] was 141 % of control [5 of 6 alive] and the survivor count (dose: 480.0 mg/kg/injection, schedule: Q01DX005 (ip), vehicle: Klucel (hydroxypropylcellulose) (HPC)) was 3 of 6.

In the case of `CN(C)c1ccc2cc(-n3nnc4cc([N+](=O)[O-])ccc43)c(=O)oc2c1`, the survivor count (dose: 100.0 mg/kg/injection, schedule: Q04DX002 (ip), vehicle: saline with Tween-80) is reported as 6 of 6, the survivor count (dose: 200.0 mg/kg/injection, schedule: Q04DX002 (ip), vehicle: saline with Tween-80) is reported as 6 of 6 and the survivor count (dose: 400.0 mg/kg/injection, schedule: Q04DX002 (ip), vehicle: saline with Tween-80) is reported as 6 of 6.

For `CC(CCCN(CCCl)CCCl)Nc1ccnc2cc(Cl)ccc12` (stereo not drawn), the T/C (dose: 0.25 mg/kg/injection, schedule: Q01DX009 (ip), vehicle: saline + alcohol) was 127 % of control [5 of 6 alive], the T/C (dose: 0.44 mg/kg/injection, schedule: Q01DX009 (ip), vehicle: saline) was 127 % of control and the T/C (dose: 0.5 mg/kg/injection, schedule: Q01DX009 (ip), vehicle: saline + alcohol) was 145 % of control [5 of 6 alive]. The T/C (dose: 1.0 mg/kg/injection, schedule: Q01DX009 (ip), vehicle: saline) was 140 % of control.

With `COc1cccc2c1C(=O)c1c(O)c3c(c(O)c1C2=O)CC(O)(C1(C)OCC(C)(C)CO1)CC3OC1CC(N)C(O)C(C)O1` (stereo not drawn) the survivor count (dose: 100.0 mg/kg/injection, schedule: Q04DX003 (ip), vehicle: water) was 0 of 6 on day 9 and the survivor count (dose: 200.0 mg/kg/injection, schedule: Q04DX003 (ip), vehicle: water) was 0 of 6 on day 9.

`CNC(=O)OCc1c(COC(=O)NC)c(-c2ccc(C)cc2)n(C)c1C` was tested, and the T/C (dose: 3.13 mg/kg/injection, schedule: Q01DX009 (ip), vehicle: distilled water + Tween-80) was 134 % of control, the T/C (dose: 6.25 mg/kg/injection, schedule: Q01DX009 (ip), vehicle: distilled water + Tween-80) was 125 and 138 % of control and the T/C (dose: 12.5 mg/kg/injection, schedule: Q01DX009 (ip), vehicle: distilled water + Tween-80) was 134 and 144 % of control. For the same compound, the T/C (dose: 25.0 mg/kg/injection, schedule: Q01DX009 (ip), vehicle: distilled water + Tween-80) was 141 and 144 % of control, the survivor count (dose: 50.0 mg/kg/injection, schedule: Q01DX009 (ip), vehicle: distilled water + Tween-80) was 3 of 6 and 5 of 6 and the survivor count (dose: 100.0 mg/kg/injection, schedule: Q01DX009 (ip), vehicle: distilled water + Tween-80) was 0 of 6.

`CCCCCCC(Nc1ncnc(Cl)c1N)C(C)O` (stereo not drawn) was tested, and the survivor count (dose: 50.0 mg/kg/injection, schedule: Q01DX009 (ip), vehicle: saline with Tween-80) was 0 of 6.

In the case of `O=c1[nH]c2cc(Cl)ccc2nc1/C=C(O)/C=C/c1ccccc1`, the survivor count [4] is reported as 6 of 6.

In the case of `C=C1CCN(c2ccc(N3CCC(=C)C3=O)cc2)C1=O`, the survivor count (dose: 12.5 mg/kg/injection, schedule: Q01DX009 (ip), vehicle: saline + alcohol) is reported as 6 of 6.

For `OO.OO.[Cr+3].[NH-]CC[N-]CC[NH-]`, the survivor count [9] was 3 of 6.

With `CCC1(O)CN2CCc3c([nH]c4ccccc34)C1C(/C=C(\C(=O)OC)c1cc3c(cc1OC)N(C)C1C(O)(C(=O)OC)C(OC(C)=O)C4(CC)C=CCN5CCC31C54)C2` (stereo not drawn) the T/C (dose: 1.0 mg/kg/injection, schedule: Q01DX009 (ip), vehicle: distilled water + alcohol) was 142 % of control.

Reference: PubChem BioAssay AID330 (DTP/NCI, 2004)
